Measurements reported in patent publication US5236899A (Merck & Co., Inc., priority 1991, dated 1993).
HELM strings list residues between dots; [ac] is acetyl, [am] amide, other brackets name non-standard units.

Experiment: general procedure: solution-phase peptide synthesis; BOP-Cl/triethylamine; DCC/N-hydroxybenzotriazole; BOP/N-methylmorpholine; 1-prop

Substance | step yield (coupling step) | further results
Boc-D-Ala-MeLeu-MeLeu-MeVal-MeBmt-Abu-Sar-MeLeu-Val-MeAla-AlaOH |  | step yield (late stage modification step): 77.5%
Boc-L-2-Aminobutyryl-Sarcosyl-N-Methyl-L-Leucyl-L-Valyl-N-Methyl-L-Alanyl- L-Alanine Benzyl Ester | 51% of theory | 
Boc-N-Methyl-L-Leucyl-L-Valyl-N-Methyl-L-Alanyl-L-Alanine Benzyl Ester | 75% of theory | 
N,O-isopropylidene-MeBmt-Abu-Sar-MeLeu-Val-MeAla-AlaOBzl | 58% | 
PEPTIDE1{[MeBmt].[Abu].[Sar].[MeLeu].V.[MeAla].A.[dA].[MeLeu].[MeLeu].[MeVal]}$PEPTIDE1,PEPTIDE1,1:R1-11:R2$$$V2.0 |  | cyclisation yield (cyclisation step, on linear precursor): 63%
